In doi:10.1101/2024.06.17.598829 (bioRxiv, 2024):
Substitutions are numbered along the chain they refer to. No constants are given. Whether binding was seen depends on the method and setting. Binding seen in cells or lysates may run through a third protein. Some binding calls cover weakened binding; strength is not graded here. For part of these data: Tags and fused reporters may be left off the sequences shown.

B1: NPH3ΔC51 (domain or fragment, UniProt Q9FMF5 1-695)
chain: MMWESESDGGVGVGGGGGREYGDGVLSSNKHGGVKTDGFELRGQSWFVATDIPSDLLVKIGDMNFHLHKYPLLSRSGKMNRLIYESRDPDPTILILDDLPGGPEAFELASKFCYGVPVDLTATNISGLRCAAEYLEMTEDLEEGNLIFKTEAFLSYVVLSSWRDSILVLKSCEKLSPWAENLQIVRRCSESIAWKACSNPKGIRWAYTGKAPSPSTTNFAGSSPRWNESKDSSFYCSPSRNTNSQPVPPDWWFEDVSILRIDHFVRVITAIKVKGMRFELLGAVIMHYAGKWLPGLIKEGGVAIAPAMSSAIGGGLGLGGDEMSISCGSNSSGGSSGPDWKGGLHMVLSAGKTNGHQDSVACLAGLGISPKDQRMIVESLISIIPPQKDSVTCSFLLRLLRAANMLKVAPALITELEKRVGMQFEQATLQDLLIPGYNNKGETMYDVDLVQRLLEHFLVQEQTEGSSPSRMSPSPSQSMYADIPRGNNNNGGGGGGNNQNAKMRVARLVDSYLTEVARDRNLPLTKFQVLAEALPESARTCDDGLYRAIDSYLKAHPTLSEHERKRLCRVMDCQKLSMDACMHAAQNERLPLRVVVQVLFSEQVKISNALANTSLKESTTLGEAMGTYQPMIPNRKTLIEATPQSFQEGWAAAKKDINTLKFELETVKTKYVELQNEMEVMQRQFEKTGKVKNTP
B2: NPH3ΔN197 (domain or fragment, UniProt Q9FMF5 198-746)
chain: SNPKGIRWAYTGKAPSPSTTNFAGSSPRWNESKDSSFYCSPSRNTNSQPVPPDWWFEDVSILRIDHFVRVITAIKVKGMRFELLGAVIMHYAGKWLPGLIKEGGVAIAPAMSSAIGGGLGLGGDEMSISCGSNSSGGSSGPDWKGGLHMVLSAGKTNGHQDSVACLAGLGISPKDQRMIVESLISIIPPQKDSVTCSFLLRLLRAANMLKVAPALITELEKRVGMQFEQATLQDLLIPGYNNKGETMYDVDLVQRLLEHFLVQEQTEGSSPSRMSPSPSQSMYADIPRGNNNNGGGGGGNNQNAKMRVARLVDSYLTEVARDRNLPLTKFQVLAEALPESARTCDDGLYRAIDSYLKAHPTLSEHERKRLCRVMDCQKLSMDACMHAAQNERLPLRVVVQVLFSEQVKISNALANTSLKESTTLGEAMGTYQPMIPNRKTLIEATPQSFQEGWAAAKKDINTLKFELETVKTKYVELQNEMEVMQRQFEKTGKVKNTPSSSAWTSGWKKLSKLTKMSGQESHDISSGGEQAGVDHPPPRKPRRWRNSIS

Columns and labels:
Assay in all cases: co-IP
[1] = biological target: T1, NON-PHOTOTROPIC HYPOCOTYL 3 (NPH3), fluorophore-tagged, expressed in N. benthamiana (Arabidopsis thaliana) (UniProt Q9FMF5)
T1 sequence: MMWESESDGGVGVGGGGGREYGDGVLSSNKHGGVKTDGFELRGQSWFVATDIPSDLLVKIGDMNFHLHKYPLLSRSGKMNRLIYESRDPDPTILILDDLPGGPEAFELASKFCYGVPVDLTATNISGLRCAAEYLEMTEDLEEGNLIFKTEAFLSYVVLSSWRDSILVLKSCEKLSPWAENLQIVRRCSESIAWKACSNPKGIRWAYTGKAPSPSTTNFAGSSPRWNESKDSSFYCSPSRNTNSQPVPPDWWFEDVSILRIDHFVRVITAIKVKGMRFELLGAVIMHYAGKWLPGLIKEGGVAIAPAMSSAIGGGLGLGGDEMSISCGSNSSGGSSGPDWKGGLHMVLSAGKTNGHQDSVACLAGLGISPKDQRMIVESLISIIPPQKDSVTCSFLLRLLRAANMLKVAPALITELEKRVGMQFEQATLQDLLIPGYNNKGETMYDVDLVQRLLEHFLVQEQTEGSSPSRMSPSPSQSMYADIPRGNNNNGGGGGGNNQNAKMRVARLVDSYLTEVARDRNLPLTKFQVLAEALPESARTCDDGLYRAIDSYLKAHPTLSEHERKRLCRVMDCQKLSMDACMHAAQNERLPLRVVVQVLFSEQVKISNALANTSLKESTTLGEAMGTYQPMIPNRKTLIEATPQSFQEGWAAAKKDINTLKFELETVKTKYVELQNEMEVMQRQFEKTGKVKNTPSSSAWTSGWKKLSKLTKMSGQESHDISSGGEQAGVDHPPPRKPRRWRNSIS

[2] = biological target: T2, NPH3_S744A (Arabidopsis thaliana) (UniProt Q9FMF5)
T2 sequence: T1 sequence with S744A

[3] = biological target: T3, NPH3ΔC51 (Arabidopsis thaliana) (UniProt Q9FMF5)
T3 sequence: B1 chain

[4] = biological target: T4, NPH3_WLM/E (Arabidopsis thaliana) (UniProt Q9FMF5)
T4 sequence: T1 sequence with W650E, L664E, M681E

[5] = biological target: NPH3ΔN197 (Arabidopsis thaliana) (UniProt Q9FMF5)
[6] = biological target: T5, ROOT PHOTOTROPISM 2 (RPT2), RFP-tagged (Arabidopsis thaliana) (UniProt Q682S0)
T5 sequence: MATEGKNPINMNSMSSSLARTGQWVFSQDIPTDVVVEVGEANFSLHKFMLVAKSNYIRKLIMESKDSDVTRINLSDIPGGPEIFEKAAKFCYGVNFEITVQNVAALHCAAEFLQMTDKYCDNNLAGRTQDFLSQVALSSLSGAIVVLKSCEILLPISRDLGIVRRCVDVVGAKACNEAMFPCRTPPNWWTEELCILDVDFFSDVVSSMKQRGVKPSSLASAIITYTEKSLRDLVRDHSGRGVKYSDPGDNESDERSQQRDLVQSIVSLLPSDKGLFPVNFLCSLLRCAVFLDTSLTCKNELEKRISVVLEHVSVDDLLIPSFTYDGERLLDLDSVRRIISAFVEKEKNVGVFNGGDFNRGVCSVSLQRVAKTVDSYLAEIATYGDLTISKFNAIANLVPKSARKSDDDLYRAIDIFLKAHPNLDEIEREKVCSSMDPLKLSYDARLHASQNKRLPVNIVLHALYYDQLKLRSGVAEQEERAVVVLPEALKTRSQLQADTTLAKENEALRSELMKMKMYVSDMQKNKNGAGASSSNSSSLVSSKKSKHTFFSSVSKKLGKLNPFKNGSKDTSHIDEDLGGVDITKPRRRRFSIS

Binder	binding [1]	binding [2]	binding [3]	binding [4]	binding [5]	binding [6]
B1	binds	binds	binds	binds weakly	–	–
B2	–	–	–	–	binds	binds
